From paper PMC2978215
These are yes or no findings as the source states them, for the method shown. In cells and extracts the contact can be indirect. Some binding calls cover weakened binding; strength is not graded here. For part of these data: Tags and fused reporters may be left off the sequences shown.

Amino acid sequences for entries named in this document (tags omitted). A change or cut given only in a name is not applied to a line headed by its entry. Chains listed by the source or under a name are the forms on record and can include a tag or linker. Residues count along the entry.
UniProt P62993, residues 60-152: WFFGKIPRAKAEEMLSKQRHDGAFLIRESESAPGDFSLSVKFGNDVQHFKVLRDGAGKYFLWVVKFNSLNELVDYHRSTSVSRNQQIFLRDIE
Tie2/Tie-2/Tek receptor tyrosine kinase, wild type (Q02858, residues 23-1122): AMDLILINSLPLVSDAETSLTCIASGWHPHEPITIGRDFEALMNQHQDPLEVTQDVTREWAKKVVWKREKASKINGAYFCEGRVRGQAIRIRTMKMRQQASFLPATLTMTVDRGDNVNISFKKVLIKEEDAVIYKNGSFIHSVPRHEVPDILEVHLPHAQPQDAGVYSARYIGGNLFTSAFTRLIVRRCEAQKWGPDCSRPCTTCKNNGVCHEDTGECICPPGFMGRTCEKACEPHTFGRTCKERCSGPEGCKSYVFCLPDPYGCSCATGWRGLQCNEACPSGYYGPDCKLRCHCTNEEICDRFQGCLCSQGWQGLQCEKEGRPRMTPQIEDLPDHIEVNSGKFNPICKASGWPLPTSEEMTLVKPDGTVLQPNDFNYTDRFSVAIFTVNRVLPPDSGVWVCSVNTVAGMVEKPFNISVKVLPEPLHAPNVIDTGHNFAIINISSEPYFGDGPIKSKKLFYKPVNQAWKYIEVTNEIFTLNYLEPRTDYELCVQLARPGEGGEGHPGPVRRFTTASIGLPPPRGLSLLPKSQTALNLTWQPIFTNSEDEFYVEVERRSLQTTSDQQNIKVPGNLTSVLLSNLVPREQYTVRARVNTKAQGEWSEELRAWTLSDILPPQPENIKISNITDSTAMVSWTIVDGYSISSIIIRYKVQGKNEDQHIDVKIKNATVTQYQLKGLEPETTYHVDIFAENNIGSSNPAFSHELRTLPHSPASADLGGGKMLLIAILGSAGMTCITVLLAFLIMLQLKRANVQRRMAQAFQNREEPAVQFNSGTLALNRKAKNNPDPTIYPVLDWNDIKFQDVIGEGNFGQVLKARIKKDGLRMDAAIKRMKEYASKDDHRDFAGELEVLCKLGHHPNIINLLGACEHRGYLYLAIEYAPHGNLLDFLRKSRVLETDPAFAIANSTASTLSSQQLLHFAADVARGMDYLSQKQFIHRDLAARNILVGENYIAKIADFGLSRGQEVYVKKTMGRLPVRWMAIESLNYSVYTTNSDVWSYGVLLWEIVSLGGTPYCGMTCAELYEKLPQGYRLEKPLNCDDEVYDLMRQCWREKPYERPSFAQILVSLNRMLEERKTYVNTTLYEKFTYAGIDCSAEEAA
Tie2 K853A, kinase inactive mutant (Q02858, form named): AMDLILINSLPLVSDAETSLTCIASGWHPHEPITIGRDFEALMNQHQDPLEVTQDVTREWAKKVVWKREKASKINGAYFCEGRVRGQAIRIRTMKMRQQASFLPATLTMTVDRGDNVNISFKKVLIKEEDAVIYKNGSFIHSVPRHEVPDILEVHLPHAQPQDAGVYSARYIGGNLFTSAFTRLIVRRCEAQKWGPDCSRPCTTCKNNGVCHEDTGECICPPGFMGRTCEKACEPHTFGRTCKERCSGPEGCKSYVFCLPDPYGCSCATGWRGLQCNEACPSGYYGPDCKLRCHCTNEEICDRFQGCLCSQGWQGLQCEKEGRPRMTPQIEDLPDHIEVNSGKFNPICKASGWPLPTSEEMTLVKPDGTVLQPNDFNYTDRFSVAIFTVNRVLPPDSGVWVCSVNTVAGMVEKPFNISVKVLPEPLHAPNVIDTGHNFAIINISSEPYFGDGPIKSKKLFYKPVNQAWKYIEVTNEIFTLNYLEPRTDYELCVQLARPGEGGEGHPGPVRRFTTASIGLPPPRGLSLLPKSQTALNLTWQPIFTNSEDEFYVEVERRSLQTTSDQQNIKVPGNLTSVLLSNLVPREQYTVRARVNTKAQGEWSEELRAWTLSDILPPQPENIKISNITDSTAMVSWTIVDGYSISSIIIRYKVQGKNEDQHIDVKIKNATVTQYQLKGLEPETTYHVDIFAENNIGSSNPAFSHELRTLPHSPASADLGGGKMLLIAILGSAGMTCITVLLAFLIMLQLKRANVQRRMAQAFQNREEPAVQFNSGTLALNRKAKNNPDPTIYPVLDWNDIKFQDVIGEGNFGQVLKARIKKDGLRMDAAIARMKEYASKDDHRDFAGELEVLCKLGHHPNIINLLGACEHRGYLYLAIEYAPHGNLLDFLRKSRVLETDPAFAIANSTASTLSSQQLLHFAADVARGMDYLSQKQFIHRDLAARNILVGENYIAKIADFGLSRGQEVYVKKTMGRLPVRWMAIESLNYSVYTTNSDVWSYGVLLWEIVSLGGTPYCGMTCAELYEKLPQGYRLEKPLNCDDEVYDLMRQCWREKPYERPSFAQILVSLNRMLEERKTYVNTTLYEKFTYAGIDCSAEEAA

Legend:
GST-SH2 domain of Grb14 = target: T1, GST-SH2 domain of Grb14 (UniProt Q14449); assay: pull-down; GST-SH2 domains purified from E. coli and immobilized on glutathione-Sepharose beads, incubated with lysates of HEK293T cells transiently expressing WT Tie2 or K853A; complexes resolved by SDS-PAGE and immunoblotted with anti-Tie2; only the target purified
T1 sequence: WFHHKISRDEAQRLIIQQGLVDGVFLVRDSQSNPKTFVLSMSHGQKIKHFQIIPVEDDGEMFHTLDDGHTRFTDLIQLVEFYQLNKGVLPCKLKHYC

GST-SH2 domain of Grb2 = GST-SH2 domain of Grb2 (UniProt P62993); assay: as above

| Substance | binding (GST-SH2 domain of Grb14) | binding (GST-SH2 domain of Grb2) |
| --- | --- | --- |
| Tie2 K853A, kinase inactive mutant (from UniProt Q02858 23-1122) (receptor) | no binding | – |
| Tie2/Tie-2/Tek receptor tyrosine kinase, wild type (from UniProt Q02858 23-1122) | binds | binds |
